Paper PMC7725606
These are yes or no findings as the source states them, for the method shown. Binding seen in cells or lysates may run through a third protein. These calls come from enrichment with a bait or labelling near it, and not all partners need be listed. For part of these data: Sequences can lack the tags named with a protein.

By UniProt entry, the sequences of proteins in these tests, tags left out. Where a name states a change or a piece, a line headed by the entry shows the natural chain unless it says otherwise.
UniProt I7MKG8: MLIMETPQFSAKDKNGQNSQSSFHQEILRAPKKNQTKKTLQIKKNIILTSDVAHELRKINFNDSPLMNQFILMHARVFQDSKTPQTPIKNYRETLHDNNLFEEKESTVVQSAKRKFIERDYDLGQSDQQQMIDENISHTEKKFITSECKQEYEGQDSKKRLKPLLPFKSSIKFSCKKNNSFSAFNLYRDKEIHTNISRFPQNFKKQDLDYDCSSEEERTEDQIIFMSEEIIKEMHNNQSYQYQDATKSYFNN
UniProt Q22CT9: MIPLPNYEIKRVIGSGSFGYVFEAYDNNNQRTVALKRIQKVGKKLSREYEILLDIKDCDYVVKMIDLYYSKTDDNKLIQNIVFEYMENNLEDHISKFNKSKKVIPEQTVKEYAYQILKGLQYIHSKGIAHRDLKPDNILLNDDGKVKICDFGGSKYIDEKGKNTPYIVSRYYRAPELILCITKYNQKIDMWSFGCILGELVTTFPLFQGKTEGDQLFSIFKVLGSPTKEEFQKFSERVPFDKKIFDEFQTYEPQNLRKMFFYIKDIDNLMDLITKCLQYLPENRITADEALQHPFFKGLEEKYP
UniProt Q22HC0: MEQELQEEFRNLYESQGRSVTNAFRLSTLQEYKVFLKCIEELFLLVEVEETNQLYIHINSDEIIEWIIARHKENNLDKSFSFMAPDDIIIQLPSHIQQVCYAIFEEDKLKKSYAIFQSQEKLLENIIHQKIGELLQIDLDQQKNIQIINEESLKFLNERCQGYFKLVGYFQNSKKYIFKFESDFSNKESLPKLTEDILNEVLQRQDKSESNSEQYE
UniProt I7M9G4: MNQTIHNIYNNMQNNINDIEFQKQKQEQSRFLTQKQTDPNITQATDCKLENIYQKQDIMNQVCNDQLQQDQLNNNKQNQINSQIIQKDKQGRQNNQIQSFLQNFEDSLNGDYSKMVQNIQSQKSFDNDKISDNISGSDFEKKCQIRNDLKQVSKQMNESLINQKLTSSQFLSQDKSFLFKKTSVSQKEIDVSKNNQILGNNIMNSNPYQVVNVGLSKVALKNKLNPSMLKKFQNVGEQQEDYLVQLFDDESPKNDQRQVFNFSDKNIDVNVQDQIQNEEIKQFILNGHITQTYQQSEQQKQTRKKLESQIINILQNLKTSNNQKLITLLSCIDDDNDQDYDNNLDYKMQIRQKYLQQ
UniProt O76506: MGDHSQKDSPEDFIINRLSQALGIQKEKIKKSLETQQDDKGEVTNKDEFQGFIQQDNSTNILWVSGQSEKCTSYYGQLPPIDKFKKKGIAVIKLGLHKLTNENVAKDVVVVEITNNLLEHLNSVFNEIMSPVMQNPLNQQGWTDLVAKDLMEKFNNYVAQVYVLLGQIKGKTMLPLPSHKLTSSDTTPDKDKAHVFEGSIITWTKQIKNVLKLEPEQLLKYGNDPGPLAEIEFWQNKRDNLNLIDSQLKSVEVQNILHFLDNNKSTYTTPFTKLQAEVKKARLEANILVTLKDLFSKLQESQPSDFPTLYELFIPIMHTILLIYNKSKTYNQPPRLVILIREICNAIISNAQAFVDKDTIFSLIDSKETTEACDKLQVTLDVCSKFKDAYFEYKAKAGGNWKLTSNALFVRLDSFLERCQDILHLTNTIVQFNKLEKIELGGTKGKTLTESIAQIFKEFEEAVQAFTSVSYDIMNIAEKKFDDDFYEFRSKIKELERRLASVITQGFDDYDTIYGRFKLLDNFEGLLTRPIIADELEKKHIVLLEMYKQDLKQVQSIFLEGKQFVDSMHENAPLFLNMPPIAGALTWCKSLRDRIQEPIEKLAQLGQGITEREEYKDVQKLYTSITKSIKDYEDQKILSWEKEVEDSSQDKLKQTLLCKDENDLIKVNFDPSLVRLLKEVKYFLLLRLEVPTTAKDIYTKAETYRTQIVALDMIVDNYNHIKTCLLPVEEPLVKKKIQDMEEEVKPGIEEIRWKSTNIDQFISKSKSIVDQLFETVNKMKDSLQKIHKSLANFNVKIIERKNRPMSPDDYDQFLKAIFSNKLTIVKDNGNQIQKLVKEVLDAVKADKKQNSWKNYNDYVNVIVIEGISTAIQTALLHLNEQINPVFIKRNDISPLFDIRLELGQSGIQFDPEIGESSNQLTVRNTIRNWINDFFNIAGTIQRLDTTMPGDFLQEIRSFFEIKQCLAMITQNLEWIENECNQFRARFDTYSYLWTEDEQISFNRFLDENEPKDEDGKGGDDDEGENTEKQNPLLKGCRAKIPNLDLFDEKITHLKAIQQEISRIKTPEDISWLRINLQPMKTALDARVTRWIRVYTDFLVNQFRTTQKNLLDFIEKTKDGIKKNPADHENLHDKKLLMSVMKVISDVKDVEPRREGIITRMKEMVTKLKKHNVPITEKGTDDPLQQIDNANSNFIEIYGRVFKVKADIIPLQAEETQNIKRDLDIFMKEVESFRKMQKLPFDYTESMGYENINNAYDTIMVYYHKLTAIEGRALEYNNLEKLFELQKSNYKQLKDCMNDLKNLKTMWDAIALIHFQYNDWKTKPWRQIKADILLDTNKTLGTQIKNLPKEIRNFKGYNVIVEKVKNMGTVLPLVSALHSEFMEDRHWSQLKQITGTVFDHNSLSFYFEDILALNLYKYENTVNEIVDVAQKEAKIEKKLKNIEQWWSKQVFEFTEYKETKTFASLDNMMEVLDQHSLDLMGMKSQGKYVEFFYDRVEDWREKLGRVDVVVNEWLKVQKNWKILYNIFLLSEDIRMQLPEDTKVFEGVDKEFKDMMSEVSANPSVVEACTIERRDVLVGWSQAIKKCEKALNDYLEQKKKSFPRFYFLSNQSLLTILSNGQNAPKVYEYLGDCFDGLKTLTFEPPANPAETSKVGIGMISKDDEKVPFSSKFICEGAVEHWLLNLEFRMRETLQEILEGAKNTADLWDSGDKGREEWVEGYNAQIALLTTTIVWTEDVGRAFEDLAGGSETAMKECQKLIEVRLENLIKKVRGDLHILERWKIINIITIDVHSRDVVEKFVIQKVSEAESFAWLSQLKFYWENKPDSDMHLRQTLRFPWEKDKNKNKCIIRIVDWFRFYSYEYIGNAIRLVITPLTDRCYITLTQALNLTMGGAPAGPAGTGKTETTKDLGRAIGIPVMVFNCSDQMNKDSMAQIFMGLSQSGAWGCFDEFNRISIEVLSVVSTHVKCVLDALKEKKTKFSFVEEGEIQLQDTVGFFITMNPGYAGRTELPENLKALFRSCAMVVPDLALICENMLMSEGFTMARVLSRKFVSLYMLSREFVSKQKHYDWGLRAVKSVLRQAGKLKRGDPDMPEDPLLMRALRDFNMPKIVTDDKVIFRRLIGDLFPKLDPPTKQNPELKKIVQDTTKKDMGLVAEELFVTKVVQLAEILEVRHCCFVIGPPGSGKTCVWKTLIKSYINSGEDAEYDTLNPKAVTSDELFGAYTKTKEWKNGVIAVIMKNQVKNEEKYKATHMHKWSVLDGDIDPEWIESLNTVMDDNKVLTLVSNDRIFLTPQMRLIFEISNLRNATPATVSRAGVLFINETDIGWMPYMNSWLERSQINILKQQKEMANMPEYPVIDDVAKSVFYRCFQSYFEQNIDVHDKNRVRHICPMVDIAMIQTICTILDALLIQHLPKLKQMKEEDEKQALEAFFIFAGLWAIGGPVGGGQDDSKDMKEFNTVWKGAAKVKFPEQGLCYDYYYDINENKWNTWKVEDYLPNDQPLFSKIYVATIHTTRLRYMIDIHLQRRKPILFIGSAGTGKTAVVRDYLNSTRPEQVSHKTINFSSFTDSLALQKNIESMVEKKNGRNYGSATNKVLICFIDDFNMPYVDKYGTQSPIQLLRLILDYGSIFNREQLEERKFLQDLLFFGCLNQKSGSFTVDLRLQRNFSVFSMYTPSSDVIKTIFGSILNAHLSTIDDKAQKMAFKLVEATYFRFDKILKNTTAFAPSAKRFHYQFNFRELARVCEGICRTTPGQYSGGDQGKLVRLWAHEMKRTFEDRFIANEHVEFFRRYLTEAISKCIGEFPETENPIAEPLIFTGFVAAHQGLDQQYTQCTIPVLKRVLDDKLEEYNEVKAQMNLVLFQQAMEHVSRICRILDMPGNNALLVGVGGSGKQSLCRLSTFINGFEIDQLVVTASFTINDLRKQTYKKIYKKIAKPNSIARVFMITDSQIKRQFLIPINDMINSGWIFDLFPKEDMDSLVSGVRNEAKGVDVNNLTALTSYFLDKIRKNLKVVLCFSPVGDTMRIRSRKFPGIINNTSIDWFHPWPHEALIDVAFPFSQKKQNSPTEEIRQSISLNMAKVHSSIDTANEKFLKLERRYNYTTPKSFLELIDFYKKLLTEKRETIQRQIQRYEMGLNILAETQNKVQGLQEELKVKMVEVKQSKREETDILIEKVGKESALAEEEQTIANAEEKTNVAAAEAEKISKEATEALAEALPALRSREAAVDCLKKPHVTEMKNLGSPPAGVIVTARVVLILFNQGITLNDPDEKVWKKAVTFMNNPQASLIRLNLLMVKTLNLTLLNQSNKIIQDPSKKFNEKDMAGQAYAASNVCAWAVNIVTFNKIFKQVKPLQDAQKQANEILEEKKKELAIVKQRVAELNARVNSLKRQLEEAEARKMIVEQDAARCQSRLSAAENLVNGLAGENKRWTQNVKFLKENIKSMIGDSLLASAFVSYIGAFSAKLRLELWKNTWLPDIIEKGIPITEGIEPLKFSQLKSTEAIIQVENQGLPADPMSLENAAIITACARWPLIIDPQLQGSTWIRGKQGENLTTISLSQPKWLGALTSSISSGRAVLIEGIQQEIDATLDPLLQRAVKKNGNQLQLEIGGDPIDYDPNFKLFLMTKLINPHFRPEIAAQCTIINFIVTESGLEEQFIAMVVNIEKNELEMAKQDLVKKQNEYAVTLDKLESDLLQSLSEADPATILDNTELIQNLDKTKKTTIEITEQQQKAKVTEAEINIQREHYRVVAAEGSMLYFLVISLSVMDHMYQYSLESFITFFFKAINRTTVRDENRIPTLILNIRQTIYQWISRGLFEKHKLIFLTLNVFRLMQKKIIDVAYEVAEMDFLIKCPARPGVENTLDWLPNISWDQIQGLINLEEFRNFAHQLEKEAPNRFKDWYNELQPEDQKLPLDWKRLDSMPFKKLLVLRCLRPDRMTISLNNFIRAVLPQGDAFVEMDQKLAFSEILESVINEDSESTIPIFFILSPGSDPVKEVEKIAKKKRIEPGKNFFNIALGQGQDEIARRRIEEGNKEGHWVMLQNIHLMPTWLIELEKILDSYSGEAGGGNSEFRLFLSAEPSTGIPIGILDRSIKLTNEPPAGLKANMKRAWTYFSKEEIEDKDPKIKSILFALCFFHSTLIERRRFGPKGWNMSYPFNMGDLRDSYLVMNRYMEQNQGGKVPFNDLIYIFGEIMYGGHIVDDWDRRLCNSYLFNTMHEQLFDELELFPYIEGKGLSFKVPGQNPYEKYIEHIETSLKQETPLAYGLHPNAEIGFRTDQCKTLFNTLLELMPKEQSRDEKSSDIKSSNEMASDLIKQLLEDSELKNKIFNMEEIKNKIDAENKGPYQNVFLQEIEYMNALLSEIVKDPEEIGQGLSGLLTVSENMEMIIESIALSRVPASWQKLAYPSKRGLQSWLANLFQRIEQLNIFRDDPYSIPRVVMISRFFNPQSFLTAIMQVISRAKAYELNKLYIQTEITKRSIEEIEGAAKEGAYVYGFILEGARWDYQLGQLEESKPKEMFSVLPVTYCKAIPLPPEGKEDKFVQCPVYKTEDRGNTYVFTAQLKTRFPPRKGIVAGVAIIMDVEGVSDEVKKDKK

T1: HA-Melg3 (meiotic nuclear elongation 3) (Tetrahymena thermophila)
T1 sequence: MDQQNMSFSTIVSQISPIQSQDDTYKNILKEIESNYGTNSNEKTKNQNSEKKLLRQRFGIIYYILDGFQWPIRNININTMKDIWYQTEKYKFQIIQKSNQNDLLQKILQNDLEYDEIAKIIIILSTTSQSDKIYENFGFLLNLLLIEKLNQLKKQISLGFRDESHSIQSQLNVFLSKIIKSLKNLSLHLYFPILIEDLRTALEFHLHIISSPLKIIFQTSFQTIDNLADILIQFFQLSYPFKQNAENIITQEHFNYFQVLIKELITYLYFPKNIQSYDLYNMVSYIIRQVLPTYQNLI

B1: Teb1 (the DNA-binding subunit of the telomerase holoenzyme) (protein, UniProt D2CVN6 1-701)
chain: MKLTKGGSYILKKVDRKQFYQDEEIVMQIKKILGQKTTDCKQYIKCECIDGLGDEALIYFEMLANQNQHLQKNDVIMIQDYLNDKTQNDKIVVLVTRFQFCKASHVQPKTAQKESIQLLNTEKTIIQKSKITKNPAEEVLKFIEVNEKDNSSNSEDMIIEQQKQEIKNNQKEKQSINGFNLEDSYSNISDITNFGGKSNFNIGSLSDQLSKQTLLISQLQVGKNRFSFKFEGRVVYKSSTFQNQQDSKYFFITAQDANNQEINLSFWQKVDQSYQTLKVGQYYYFIGGEVKQFKNNLELKFKFGDYQIIPKETLSANYVQPLALQPSKQFGNDSIGDSDYSIHNLIEKEESIAQKGYNGQKNNKYRQNNNNSKHTLLISEVLKTSKQYLSVLAQVVDIQSSDKNIRLKICDNSCNQELKVVIFPDLCYEWRDKFSINKWYYFNEFVRQIYNDEVQLKNNIHSSIKESDDQRKVITYNQEQGVFKKSISINSNDSFEIKPKISYKNNSNQEQRIYSSIEEIIQQAQASEIGQKKEFYVYGNLVSIQMKNKLYYYRCTCQGKSVLKYHGDSFFCESCQQFINPQVHLMLRAFVQDSTGTIPVMIFDQQSSQLINQIDPSIHVQEAGQYVKNCIENGQEEIIRQLFSKLDFARFIFEIQFENKEFNNEQEIAYKVLKIEKENIKEESKYLLKKLEHLINNNQNN

Each molecule was assayed against Melg2-HA (meiotic nuclear elongation 2) (Tetrahymena thermophila) (UniProt I7MKG8) (assay: affinity purification with mass spectrometry; Melg2-HA as bait; soluble lysate of mating cells 3.5 h after meiotic induction in Tris lysis buffer (150 mM NaCl, 0.1% Triton X-100, pH 7.4); EZview red anti-HA affinity gel, 2 h, 4°C; hits by SAINTexpress, Bayesian FDR 0.05 or less).
In the case of “glycogen synthase kinase 3 (Gsk3)-like protein (encoded by TTHERM_01016020) (from UniProt Q22CT9)”, the binding is reported as “binds”.

Each molecule was assayed against T1, HA-Melg3 (meiotic nuclear elongation 3) (Tetrahymena thermophila) (assay: affinity purification with mass spectrometry; overexpressed HA-Melg3 or HA-Tass1 as bait; soluble lysate in Tris lysis buffer and benzonase extract of the insoluble pellet of mating cells 3.5 h after meiotic induction; EZview red anti-HA affinity gel, 2 h, 4°C; hits by SAINTexpress, Bayesian FDR 0.05 or less).
Aip2 was tested, and the binding was “binds”.
TTHERM_00637830p (from UniProt Q22HC0) was tested, and the binding was “binds”.
In the case of Aip1, the binding is reported as “binds”.
For dynein Dyh5, the binding was “binds”.
dynein Dyh15 was tested, and the binding was “binds”.
In the case of “TTHERM_00933110p (Tass1; Telomere-associated 1), endogenous (from UniProt I7M9G4)”, the binding is reported as “binds”.
With “dynein Dyh4 (from UniProt O76506 1-4589)” the binding was “binds”.

What follows are molecules tested against HA-Tass1 (Telomere-associated 1, TTHERM_00933110p) (Tetrahymena thermophila) (UniProt I7M9G4) in the same assay as above.
With B1 the binding was “binds”.
